Construct, isoform or probe ends are uncertain for at least one entry. At least one verdict rests on a figure or table, not on a statement of the authors.

Chains of the proteins cited; added tags and fusions are not shown. Residues count along the entry.
UniProt P01127, 82-190: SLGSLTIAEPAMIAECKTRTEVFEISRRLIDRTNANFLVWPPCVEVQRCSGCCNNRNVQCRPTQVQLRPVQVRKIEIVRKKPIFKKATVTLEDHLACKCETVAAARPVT

The target in this data set is PDGF-BB (UniProt P01127). Description: PAGE and fluorescence (release of strand D). The settings on record: Mg2+, indirect read-out; complexes annealed in 1x TAE/Mg2+ buffer, DNA complex about 0.5-0.6 uM; thrombin trigger 2 h at room temperature (cell experiments); commercial protein; label: C T-BHQ1, D 5'-FAM (fluorescence assay); folded or branched DNA.

For “AATGGTCCTATGATTCCGTTTTTTTTTTTTGTCACTAGCTACTAGGTAGCTAGTGACGTTATTTTTTTTATGAGAGAGAGTGTGTCC / TAACGTCACTAGCTACCTTTTTTTTTTTTTTTTTTTTTTTTTTTTTTTTTTTTTTTT / GGACACACTCTCTCTCATTTTCAGGCTACGGCACGTAGAGCATCACCATGATCCTG / CAGGCTACGGCACGTAGAGCATCACCATGATCCTGTTTCGGAATCATAGGACCATT [complex-PDGF (C, D, A3, B3; PDGF aptamer on A3 and B3)]”, the binding result is recorded as “binds”.

The values above are taken from publication PMC10425332.
